Where “and” joins values, the source holds several entries; their conditions need not be identical. Equal values may be shown once. Where a name gives a salt, the structure may show the parent alone. The list shows a part of the results. Single values are uncertain here, since repeats match poorly.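 HEK293T cells were given each compound shortly before transfection with a reporter in which red mCherry is followed by the SARS-CoV-2 frameshift element and then GFP in the −1 frame, so GFP appears only after frameshifting.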

The test system of this assay is HEK293T. Kind of assay: percent viability (nuclei count) relative to control; higher = more viable cells. The conditions noted are these: 10 µM; 24 h.
With `C[C@]12CC[C@@H]3c4ccc(O)cc4C[C@@H](CCCCCCCCC[S+]([O-])CCCC(F)(F)C(F)(F)F)[C@H]3[C@@H]1CC[C@@H]2O` (stereo not given in full) [Faslodex], the percent viability was 125%. Take `CO/N=C(\C(=O)N[C@@H]1C(=O)N2C(C(=O)O)=C(COC(C)=O)CS[C@H]12)c1csc(N)n1` [Claforan]: the percent viability came to 197%. `O=C(O)c1cn(C2CC2)c2cc(N3CCNCC3)c(F)cc2c1=O` [ciprofloxacin]: the percent viability was 394% and 134%. As for `CN1C(C(=O)Nc2ccccn2)=C(O)c2sc(Cl)cc2S1(=O)=O`, the percent viability came to 159%. Take `CO[C@H]1C[C@H](O[C@H]2[C@H](C)[C@@H](O[C@@H]3O[C@H](C)C[C@H](N(C)C)[C@H]3O)[C@@H](C)C[C@@]3(CO3)C(=O)[C@H](C)[C@@H](O)[C@@H](C)[C@@H](C)OC(=O)[C@@H]2C)O[C@@H](C)[C@@H]1O` [oleandomycin]: the percent viability was 219%. On to `CC[C@H](C)C(=O)O[C@H]1C[C@H](O)C=C2C=C[C@H](C)[C@H](CC[C@@H](O)C[C@@H](O)CC(=O)O)[C@H]21`, for which the percent viability stood at 298%. Turning to `CCN(CC)C(C)CC(=O)Nc1ccccc1` (stereo not given) [octacaine], the percent viability worked out at 153%. As to `CN(C)CCOC(c1ccc(Cl)cc1)c1ccccn1` (stereo not given) [carbinoxamine], the percent viability came to 310%. As to `Nc1nc2ccc(OC(F)(F)F)cc2s1` [riluzole], the percent viability amounted to 113%. As for `CC1(C)OC(=O)Nc2ccc(Br)cc21` [brofoxine], the figure is 107%. As for `CC[N+](C)(C)Cc1ccccc1Br` [bretylium tosilate], the percent viability was 220%.

With `C=C[C@H]1CN2CCC1C[C@H]2[C@H](O)c1ccnc2ccc(OC)cc12` (stereo not given in full) [Quinine·HCl·2H2O], the percent viability is 261%. With `CN(C)CCC=C1c2ccccc2C(C)(C)c2ccccc21` [melitracen], the percent viability amounted to 264%. `CC(=O)OCC(=O)[C@@]12N=C(C)O[C@@H]1C[C@H]1[C@@H]3CCC4=CC(=O)C=C[C@]4(C)[C@H]3[C@@H](O)C[C@@]12C` [deflazacort]: the percent viability was determined as 213%.

Regarding `Nc1nc(/C(=C/CC(=O)O)C(=O)N[C@@H]2C(=O)N3C(C(=O)O)=CCS[C@H]23)cs1` [ceftibuten], the percent viability was 248%. `CCCOc1ccccc1-c1nc2[nH]nnc2c(=O)[nH]1` [zaprinast]: the percent viability came out at 156%. Consider `CC(C(=O)O)c1ccc(CC2CCCC2=O)cc1` (stereo not given) [loxoprofen], for which the percent viability was 92.5%.

Regarding `CCC(=O)NCC[C@@H]1CCc2ccc3c(c21)CCO3` [ramelteon], the percent viability was found to be 282%. For `COc1cc(NC(C)CCCN)c2ncccc2c1` (stereo not given) [primaquine], the percent viability was 250% and 200%. In the case of `C#Cc1c[nH]c(=O)[nH]c1=O` [eniluracil] it was 354%; in that of `C#C[C@]1(O)CC[C@H]2[C@@H]3CCc4cc(OC)ccc4[C@H]3CC[C@@]21C` [mestranol], 147%. In the case of `Cc1cc2c(cc1S(N)(=O)=O)S(=O)(=O)CCC2` [meticrane] it was 100%. On to `CCCC(CCC)C(N)=O` [valpromide], for which the percent viability turned out to be 91.8%.

On to `CCCOc1cc(N)ccc1C(=O)OCCN(CC)CC` [propoxycaine], for which the percent viability was found to be 157%.

For `C[C@]12CC[C@@H]3c4ccc(OS(=O)(=O)O)cc4CC[C@H]3[C@@H]1CCC2=O`, the percent viability came to 267%.

(Values after the supplement of paper PMC8256030.)
